Experimental data: patent publication US8883841B2, “Oncogenic ras-specific cytotoxic compound and methods of use thereof” (The Board of Regents of the University of Texas System, priority 2005, dated 2014)
For some assays here: At least one read-out could not be matched to a standard name with certainty. For some assays here: For at least one compound, name, drawing or mass did not settle the structure.

Legend:
T29Kt1 cells = conditions: Table 1; value is the negative log10 of mol/L
[1] = system: panel of 60 cancer cell lines; experiment: NCI Developmental Therapeutics Program in-vitro testing, panel of 60 cancer cell lines (whole panel); type: cell-based; conditions: of 54 cell lines
H460 cells = conditions: Table 1; value is the negative log10 of mol/L

Which “IC50 in T29k cells” value (T29Kt1 cells) does the source give for `CC(=O)Oc1cn(Cc2ccccc2)c2ccccc12` [Oncrasin K047, Indoxyl, 1-benzyl-, acetate (6CI)] here?
The value was 4.5.

For `OCc1cn(Cc2ccc(Cl)cc2)c2ccccc12` [Oncrasin K060, 1H-Indole-3-methanol, 1-[(4-chlorophenyl)methyl]-], which “cell lines with GI50<10 nM” value [1] is on record?
Its value is 5 cell lines.

And the “cell lines with GI50<1 μM” value [1]?
Its value is 17 cell lines.

What about the “cell lines with GI50 below 0.1 μM” value [1] of the same compound?
The value was 12 cell lines.

`OCc1cn(Cc2ccc(Br)cc2)c2ccccc12` [Oncrasin K73, 1H-Indole-3-methanol, 1-{(4-bromophenyl)methyl]-(9CI)] was tested. Which “IC50 in H460 cells” value (H460 cells) did it give?
The value was 9.5.
